From publication doi:10.1101/284836 come the findings set out here.

Amino acid sequences for entries named in this document (tags omitted).
UniProt P0ACJ8: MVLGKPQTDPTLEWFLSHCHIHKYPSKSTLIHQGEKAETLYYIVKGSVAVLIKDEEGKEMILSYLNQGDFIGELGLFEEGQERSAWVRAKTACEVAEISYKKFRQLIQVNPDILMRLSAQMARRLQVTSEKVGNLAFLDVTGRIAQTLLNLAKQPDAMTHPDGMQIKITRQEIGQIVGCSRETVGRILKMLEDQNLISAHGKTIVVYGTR

Results are given in words; binding and its absence hold for the method and conditions named. Where a sequence is shown, tags or fusion partners need not be part of it.

This assay concerns the target T1, EcSxyHIS (histidine-tagged E. coli Sxy) (E. coli) (UniProt P75869).
T1 sequence: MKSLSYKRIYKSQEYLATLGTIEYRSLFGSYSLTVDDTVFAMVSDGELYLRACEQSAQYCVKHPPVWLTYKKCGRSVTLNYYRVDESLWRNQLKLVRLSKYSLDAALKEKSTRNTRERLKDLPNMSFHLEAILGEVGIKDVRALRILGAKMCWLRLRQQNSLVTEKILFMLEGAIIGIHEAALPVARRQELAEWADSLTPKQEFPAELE
Kind of assay: Ni-NTA co-purification, CRP detected by bandshift.

With “native CRP (cAMP receptor protein) of E. coli (from UniProt P0ACJ8 1-210)”, the binding result was “no binding”.
